Measured data: PubChem BioAssay AID686937 (Drosophila RNAi Screening Center, 2013)
The screen tested about 23,000 reagents; below is a random part of those that have a named target and a result. 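Reduced-secretion tags in replicate 1 do not always agree with the z-scores; no criterion for assigning the tags was given.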 The numbers tell different reagents against one gene apart. Names joined by + are all predicted targets of the reagent. Further read-outs or replicates are left out here. The record does not give: the amount of reagent.

Aim: 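Genes in the fly needed for secretion of protein constitutively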 (primary screen)
Cell system: Drosophila S2 cells expressing secreted horseradish peroxidase
Reagent: long dsRNA against Drosophila genes
Duration: about 5.5 days (5 days dsRNA, then 12 h reporter induction)
Treatment: reporter expression induced after 5 days of dsRNA, read 12 h later; inducer not stated
Read-out: 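Chemiluminescent measurement of peroxidase in the medium 12 h after reporter induction, following 5 days of dsRNA, given as a z-score per plate; higher means more secretion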
Scale: z-score: higher = more reporter secreted into medium

| gene | reagent | z-score, replicate 1 |
| --- | --- | --- |
| Doc3 (Dorsocross3) | 1 | 0.26 |
| CG31121 | 1 | 0.01 |
| CG31121 | 2 | -0.09 |
| Art9 (Arginine methyltransferase 9) | 1 | 0.19 |
| Smn (survival motor neuron) | 1 | 0.45 |
| CG1314 | 1 | 0.34 |
| DIP-gamma (Dpr-interacting protein gamma) | 1 | 0.39 |
| CG5645 | 1 | -0.25 |
| Srp14 (Signal recognition particle 14) | 1 | -0.17 |
| Tti1 (Telo2 interacting protein 1) | 1 | -0.06 |
| comt (comatose) | 1 | -4.48 |
| Cbl (Cbl proto-oncogene) | 1 | 0.16 |
| Cbl (Cbl proto-oncogene) | 2 | 0 |
| Ir100a (Ionotropic receptor 100a) | 1 | 0.27 |
| Cul1 (Cullin 1) | 1 | 0.57 |
| Liprin-beta | 1 | -0.26 |
| Hmgs (HMG Coenzyme A synthase) | 1 | -1.91 |
| Rpt4 (Regulatory particle triple-A ATPase 4) | 1 | -1.2 |
| Cmtr1 (Cap methyltransferase 1) | 1 | 0.32 |
| clumsy | 1 | 0.31 |
| Gcna (Germ cell nuclear acidic peptidase) | 1 | 0.32 |
| hb (hunchback) | 1 | 0.64 |
| Strump (Strumpellin) | 1 | 0.21 |
| CG7675 | 1 | 0.24 |
| Cubn (Cubilin) | 1 | 0.22 |
| CG34447 | 1 | 0.1 |
| CR32733 (pseudo) | 1 | -1.12 |
| CG3339 | 1 | 0.12 |
| CG3339 | 2 | 0.28 |
| CG4404 | 1 | -0.56 |
| ktub (king tubby) | 1 | 0.35 |
| Mekk1 | 1 | -0.31 |
| Mekk1 | 2 | 0.31 |
| CG42542 | 1 | 0.04 |
| CG42542 | 2 | -0.43 |
| CG1662 | 1 | 0.32 |
| CG42821 | 1 | 0.51 |
| Nha2 (Na[+]/H[+] hydrogen antiporter 2) | 1 | 0.24 |
| Nha2 (Na[+]/H[+] hydrogen antiporter 2) | 2 | -2.12 |
| Nha2 (Na[+]/H[+] hydrogen antiporter 2) | 3 | 0.21 |
| Reck (Reversion-inducing-cysteine-rich protein with kazal motifs) | 1 | 0.35 |
| Reck (Reversion-inducing-cysteine-rich protein with kazal motifs) | 2 | 0.42 |
| uif (uninflatable) | 1 | 0.43 |
| uif (uninflatable) | 2 | 0.02 |
| Akh (Adipokinetic hormone) | 1 | 0.03 |
| CG33964 + CG13175 | 1 | 0.31 |
| CG33964 + CG13175 | 2 | 0.17 |
| CG33964 + CG13175 | 3 | 0.24 |
| BOD1 (Biorientation Defective 1) | 1 | 0.03 |
| Hsp68 (Heat shock protein 68) | 1 | 0.27 |
| CG16779 | 1 | 0.04 |
| Pld (Phospholipase D) | 1 | 0.15 |
| Or59b (Odorant receptor 59b) | 1 | 0.43 |
| CG6462 | 1 | 0.32 |
| Tengl2 (Testis EndoG-Like 2) | 1 | -0.41 |
| CG8568 | 1 | 0.08 |
| Obp58b (Odorant-binding protein 58b) | 1 | 0.22 |
| bbc (bb in a boxcar) | 1 | -0.57 |
| bbc (bb in a boxcar) | 2 | 0.82 |
| CG9692 | 1 | 0.15 |
| CG1236 | 1 | 0.39 |
| HP1Lcsd (Heterochromatin Protein 1L chromoshadow domain) | 1 | 0.65 |
| CheB42a (Chemosensory protein B 42a) | 1 | -0.83 |
| CG43278 (retired record) | 1 | 0.38 |
| RagA-B (Ras-related GTP binding A/B) | 1 | -0.2 |
| CR13656 (pseudo) | 1 | 0.09 |
| CR13656 (pseudo) | 2 | 0.19 |
| CG15357 | 1 | 0.29 |
| Eig71Ea (Ecdysone-induced gene 71Ea) | 1 | 0.3 |
| Cpsf6 (Cleavage and polyadenylation specific factor 6) | 1 | 0.97 |
| CtsL4 (Cathepsin L4) | 1 | 0.18 |
| Hml (Hemolectin) | 1 | 0.52 |
| TrxT (Thioredoxin T) | 1 | -0.75 |
| CG2124 | 1 | 0.31 |
| Fbxl4 (F box and leucine-rich-repeat gene 4) | 1 | -0.03 |
| CG42335 | 1 | 0.37 |
| CG42335 | 2 | 0.32 |
| CtsB (Cathepsin B) | 1 | 0.15 |
| Lsp1beta (Larval serum protein 1 beta) | 1 | 0.32 |
| Drsl3 (Drosomycin-like 3) | 1 | 0.02 |
| ZIPIC (Zinc-finger protein interacting with CP190) | 1 | 0.05 |
| ND6 (retired record) | 1 | 0.7 |
| EcR (Ecdysone receptor) | 1 | 0.69 |
| EcR (Ecdysone receptor) | 2 | 0.37 |
| Leash | 1 | 0.04 |
| CG42613 | 1 | 0.36 |
| CG42613 | 2 | -0.9 |
| CG42613 | 3 | 0.17 |
| CG42613 | 4 | -0.38 |
| CG14658 | 1 | 0.05 |
| dpr10 (defective proboscis extension response 10) | 1 | 0.19 |
| dpr10 (defective proboscis extension response 10) | 2 | 0.34 |
| dpr10 (defective proboscis extension response 10) | 3 | 0.28 |
| dpr10 (defective proboscis extension response 10) | 4 | 0.45 |
| Dhc93AB (Dynein heavy chain at 93AB) | 1 | 0.23 |
| ssp6 (short spindle 6) | 1 | -0.2 |
| ssp6 (short spindle 6) | 2 | -0.2 |
| CG9757 | 1 | 0.43 |
| CG9757 | 2 | 0.93 |
| lncRNA:CR42735 (retired record) | 1 | -0.21 |
| beat-VI (beaten path VI) | 1 | 0.29 |
| beat-VI (beaten path VI) | 2 | 0.29 |
| CG42827 | 1 | 0.27 |
| Ubc84D (Ubiquitin conjugating enzyme 84D) | 1 | 0.18 |

In a second layout: entries from further up
{"gene": "Lsp1beta (Larval serum protein 1 beta)", "reagent": 1, "z-score, replicate 1": 0.32}
{"gene": "Drsl3 (Drosomycin-like 3)", "reagent": 1, "z-score, replicate 1": 0.02}
{"gene": "ZIPIC (Zinc-finger protein interacting with CP190)", "reagent": 1, "z-score, replicate 1": 0.05}
{"gene": "ND6 (retired record)", "reagent": 1, "z-score, replicate 1": 0.7}
{"gene": "EcR (Ecdysone receptor)", "reagent": 1, "z-score, replicate 1": 0.69}
{"gene": "EcR (Ecdysone receptor)", "reagent": 2, "z-score, replicate 1": 0.37}
{"gene": "Leash", "reagent": 1, "z-score, replicate 1": 0.04}
{"gene": "CG42613", "reagent": 1, "z-score, replicate 1": 0.36}
{"gene": "CG42613", "reagent": 2, "z-score, replicate 1": -0.9}
{"gene": "CG42613", "reagent": 3, "z-score, replicate 1": 0.17}
{"gene": "CG42613", "reagent": 4, "z-score, replicate 1": -0.38}
{"gene": "CG14658", "reagent": 1, "z-score, replicate 1": 0.05}
{"gene": "dpr10 (defective proboscis extension response 10)", "reagent": 1, "z-score, replicate 1": 0.19}
